Experimental data from ChEMBL document CHEMBL1141125, “Heteroaryl-substituted naphthalenes and structurally modified derivatives: selective inhibitors of CYP11B2 for the treatment of congestive heart failure and myocardial fibrosis” (J Med Chem, 2005).

What was measured:
Aromatase = target: T1, Aromatase (Homo sapiens, UniProt P11511)
T1 sequence (P11511 whole entry): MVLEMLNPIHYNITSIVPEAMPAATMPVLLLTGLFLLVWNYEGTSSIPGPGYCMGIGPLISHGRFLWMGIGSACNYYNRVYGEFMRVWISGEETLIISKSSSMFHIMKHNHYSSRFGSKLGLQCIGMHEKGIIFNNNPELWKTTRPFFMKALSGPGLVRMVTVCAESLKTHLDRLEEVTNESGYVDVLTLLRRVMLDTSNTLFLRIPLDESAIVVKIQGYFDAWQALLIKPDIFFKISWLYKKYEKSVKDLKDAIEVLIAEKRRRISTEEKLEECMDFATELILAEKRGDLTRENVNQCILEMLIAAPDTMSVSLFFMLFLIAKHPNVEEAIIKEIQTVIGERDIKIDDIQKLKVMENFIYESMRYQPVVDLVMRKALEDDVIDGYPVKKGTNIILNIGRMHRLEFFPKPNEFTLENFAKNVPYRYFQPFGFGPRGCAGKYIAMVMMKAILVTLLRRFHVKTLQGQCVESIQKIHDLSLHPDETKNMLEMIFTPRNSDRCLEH

Homo sapiens = species: Homo sapiens; assay: Ratio between inhibitory concentration of cytochrome P450 11B1 to cytochrome P450 11B2
Summary of the method: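 Confluent V79 MZh hamster lung fibroblasts expressing human CYP11B1 or CYP11B2, in DMEM. Preincubated 60 min at 37 °C with inhibitor at three or more concentrations. [4-14C]11-deoxycorticosterone substrate, 100 nM. Incubation 120 min for CYP11B1 and 40 min for CYP11B2; controls without inhibitor. Ethyl acetate extraction, then HPTLC with phosphoimager quantification, giving IC50.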

| IC50 (Aromatase) [µM] | SMILES | Selectivity factor (Homo sapiens) |
| --- | --- | --- |
| > 36 | Oc1ccc2cc(-c3cccnc3)ccc2c1 |  |
|  | c1ccc2cc(-n3ccnc3)ccc2c1 | 35 |
